“And” between values parts separate entries of the source, which are not always exact repeats. Equal entries are not always repeated. The list shows a part of the results. For some assays here: The source does not settle which construct or isoform was used.
Columns and labels:
Experiment in all cases: protein microarray (ProtoArray v5.0), streptavidin-Alexa Fluor 647
Details in all cases: 3'-biotin; 20 mM Tris (pH 7.5), 5 mM MgCl2, 100 mM KCl, 0.1% Tween-20, A/T-rich and random oligonucleotide blockers; temperature not stated; high values mean tight binding
C21orf91 (human) = test system: C21orf91 (human)
C2orf18 (human) = test system: C2orf18 (human)
C2orf33 (human) = test system: C2orf33 (human)
C2orf34 = C2orf34 (UniProt Q7Z624)
C2orf43 (human) = test system: C2orf43 (human)
C2orf7 = C2orf7 (UniProt Q9BSG0)
C3orf45 (human) = test system: C3orf45 (human)
C3orf59 = target: T1, C3orf59 (UniProt Q8IYB1)
T1 sequence: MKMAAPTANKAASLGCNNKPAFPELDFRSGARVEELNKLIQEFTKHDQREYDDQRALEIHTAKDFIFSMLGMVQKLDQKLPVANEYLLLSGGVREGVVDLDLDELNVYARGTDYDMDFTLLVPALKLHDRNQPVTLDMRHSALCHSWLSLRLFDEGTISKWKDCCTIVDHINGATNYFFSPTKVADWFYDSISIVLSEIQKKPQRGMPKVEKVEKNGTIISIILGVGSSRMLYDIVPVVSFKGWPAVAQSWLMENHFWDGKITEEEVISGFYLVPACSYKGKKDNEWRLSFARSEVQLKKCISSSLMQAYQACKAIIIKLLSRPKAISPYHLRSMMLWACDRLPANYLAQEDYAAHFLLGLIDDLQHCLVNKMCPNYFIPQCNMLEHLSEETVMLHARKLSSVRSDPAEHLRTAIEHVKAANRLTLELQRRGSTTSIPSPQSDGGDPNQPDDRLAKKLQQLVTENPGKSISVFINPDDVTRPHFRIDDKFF

C4BPB (human) = test system: C4BPB (human)
[1] = test system: C4b-binding protein beta chain (human)
C4orf16 (human) = test system: C4orf16 (human)
C4orf18 (human) = test system: C4orf18 (human)
C4orf19 (human) = test system: C4orf19 (human)
C4orf33 (human) = test system: C4orf33 (human)
C4orf35 (human) = test system: C4orf35 (human)
C5AR1 (human) = test system: C5AR1 (human)
C5orf15 (human) = test system: C5orf15 (human)
C5orf25 (human) = test system: C5orf25 (human)
C5orf28 (human) = test system: C5orf28 (human)
C5orf3 (human) = test system: C5orf3 (human)

**Q.** “GGGAGGCTGAGGCAGG [G4-1 biotinylated (PQS2)]” was tested. Which binding signal (C21orf91 (human)) did it give?
**A.** Its binding signal is -0.341 z-score.

**Q.** And the binding signal (C2orf18 (human))?
**A.** Its binding signal is -0.337 z-score and -0.314 z-score.

**Q.** What about the binding signal (C2orf33 (human)) of the same sequence?
**A.** The binding signal was -0.355 z-score.

**Q.** What about the binding signal (C2orf34) of the same sequence?
**A.** Its binding signal is -0.319 z-score and -0.284 z-score.

**Q.** What about the binding signal (C2orf43 (human)) of the same sequence?
**A.** Its binding signal is -0.359 z-score.

**Q.** And the binding signal (C2orf7)?
**A.** The binding signal was -0.322 z-score.

**Q.** And the binding signal (C3orf45 (human))?
**A.** Its binding signal is -0.331 z-score.

**Q.** And the binding signal (C3orf59)?
**A.** The binding signal was -0.306 z-score.

**Q.** What about the binding signal (C4BPB (human)) of the same sequence?
**A.** Its binding signal is -0.329 z-score.

**Q.** And the binding signal [1]?
**A.** Its binding signal is -0.332 z-score.

**Q.** And the binding signal (C4orf16 (human))?
**A.** Its binding signal is -0.322 z-score.

**Q.** What about the binding signal (C4orf18 (human)) of the same sequence?
**A.** Its binding signal is -0.327 z-score.

**Q.** What about the binding signal (C4orf19 (human)) of the same sequence?
**A.** The binding signal was -0.338 z-score.

**Q.** And the binding signal (C4orf33 (human))?
**A.** Its binding signal is -0.316 z-score.

**Q.** What about the binding signal (C4orf35 (human)) of the same sequence?
**A.** The binding signal was -0.356 z-score.

**Q.** And the binding signal (C5AR1 (human))?
**A.** Its binding signal is -0.342 z-score.

**Q.** And the binding signal (C5orf15 (human))?
**A.** The binding signal was -0.271 z-score.

**Q.** And the binding signal (C5orf25 (human))?
**A.** Its binding signal is -0.297 z-score.

**Q.** What about the binding signal (C5orf28 (human)) of the same sequence?
**A.** Its binding signal is -0.312 z-score.

**Q.** What about the binding signal (C5orf3 (human)) of the same sequence?
**A.** The binding signal was -0.342 z-score.
